Test results taken from paper PMC5996148.
Several values for one entry are separate records, joined by “and”; a condition that tells them apart may be missing. Equal entries are not always repeated. This is one part of the list. For some assays here: Construct or isoform of the protein are uncertain.

Amino acid sequences for entries named in this document (tags omitted). A change or cut given only in a name is not applied to a line headed by its entry.
UniProt P08185: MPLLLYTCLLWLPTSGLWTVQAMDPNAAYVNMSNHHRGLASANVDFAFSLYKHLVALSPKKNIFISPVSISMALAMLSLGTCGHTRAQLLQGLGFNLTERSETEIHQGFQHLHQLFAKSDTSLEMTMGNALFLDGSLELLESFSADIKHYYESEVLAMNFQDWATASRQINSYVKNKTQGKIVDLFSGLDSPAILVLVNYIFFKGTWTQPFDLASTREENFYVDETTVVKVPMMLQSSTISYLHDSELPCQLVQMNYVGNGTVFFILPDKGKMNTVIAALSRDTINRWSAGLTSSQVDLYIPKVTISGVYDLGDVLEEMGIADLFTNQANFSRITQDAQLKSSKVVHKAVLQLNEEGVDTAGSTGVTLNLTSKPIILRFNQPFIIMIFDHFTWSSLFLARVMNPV

Legend:
Test in all cases: protein microarray (ProtoArray v5.0), streptavidin-Alexa Fluor 647
Conditions in all cases: 3'-biotin; 20 mM Tris (pH 7.5), 5 mM MgCl2, 100 mM KCl, 0.1% Tween-20, A/T-rich and random oligonucleotide blockers; temperature not stated; high values mean tight binding
SEPHS2 (human) = system: SEPHS2 (human)
SEPP1 (human) = system: SEPP1 (human)
SEPT1 (human) = system: SEPT1 (human)
SEPT11 (human) = system: SEPT11 (human)
SEPT4 (human) = system: SEPT4 (human)
SEPT6 (human) = system: SEPT6 (human)
SEPT9 (human) = system: SEPT9 (human)
SERPINA10 (human) = system: SERPINA10 (human)
SERPINA6 = SERPINA6 (UniProt P08185)
SERPINA6 (human) = system: SERPINA6 (human)
SERPINA7 (human) = system: SERPINA7 (human)
SERPINB1 (human) = system: SERPINB1 (human)
SERPINB2 (human) = system: SERPINB2 (human)
SERPINB3 (human) = system: SERPINB3 (human)
SERPINB5 (human) = system: SERPINB5 (human)
SERPINB6 (human) = system: SERPINB6 (human)
SERPINB7 (human) = system: SERPINB7 (human)
SERPINB8 (human) = system: SERPINB8 (human)
SERPINB9 (human) = system: SERPINB9 (human)
SETMAR (human) = system: SETMAR (human)

Q: How did the binding signal (SEPHS2 (human)) turn out when “GGGAGGCTGAGGCAGG [G4-1 biotinylated (PQS2)]” was run?
A: Its binding signal is -0.35 z-score.

Q: And the binding signal (SEPP1 (human))?
A: Its binding signal is -0.333 z-score.

Q: And the binding signal (SEPT1 (human))?
A: The binding signal was -0.332 z-score.

Q: And the binding signal (SEPT11 (human))?
A: The binding signal was -0.33 z-score.

Q: And the binding signal (SEPT4 (human))?
A: The binding signal was -0.337 z-score and -0.334 z-score.

Q: And the binding signal (SEPT6 (human))?
A: Its binding signal is -0.348 z-score and -0.338 z-score.

Q: And the binding signal (SEPT9 (human))?
A: The binding signal was -0.318 z-score.

Q: And the binding signal (SERPINA10 (human))?
A: Its binding signal is -0.31 z-score.

Q: And the binding signal (SERPINA6)?
A: The binding signal was -0.332 z-score.

Q: And the binding signal (SERPINA6 (human))?
A: Its binding signal is -0.356 z-score.

Q: And the binding signal (SERPINA7 (human))?
A: The binding signal was -0.332 z-score.

Q: What about the binding signal (SERPINB1 (human)) of the same sequence?
A: The binding signal was -0.331 z-score.

Q: What about the binding signal (SERPINB2 (human)) of the same sequence?
A: Its binding signal is -0.329 z-score.

Q: And the binding signal (SERPINB3 (human))?
A: Its binding signal is -0.323 z-score.

Q: And the binding signal (SERPINB5 (human))?
A: The binding signal was -0.318 z-score.

Q: What about the binding signal (SERPINB6 (human)) of the same sequence?
A: Its binding signal is -0.326 z-score.

Q: And the binding signal (SERPINB7 (human))?
A: The binding signal was -0.328 z-score.

Q: And the binding signal (SERPINB8 (human))?
A: The binding signal was -0.254 z-score.

Q: And the binding signal (SERPINB9 (human))?
A: The binding signal was -0.328 z-score.

Q: What about the binding signal (SETMAR (human)) of the same sequence?
A: Its binding signal is -0.265 z-score.
